This test has as its target T1, Nkd1^1–286 (yeast two-hybrid bait) (human) (UniProt Q969G9).
T1 sequence: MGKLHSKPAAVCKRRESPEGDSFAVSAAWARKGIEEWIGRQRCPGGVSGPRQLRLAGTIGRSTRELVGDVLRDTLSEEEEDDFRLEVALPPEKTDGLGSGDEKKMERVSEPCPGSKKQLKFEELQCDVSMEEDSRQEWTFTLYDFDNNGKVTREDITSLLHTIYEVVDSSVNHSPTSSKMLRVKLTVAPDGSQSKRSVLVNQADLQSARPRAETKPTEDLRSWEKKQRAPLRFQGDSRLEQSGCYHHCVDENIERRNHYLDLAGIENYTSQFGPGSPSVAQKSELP
The test is described as follows: two-hybrid; Nkd1 baits in pAS2-1, Dvl preys in pAct2, yeast reporter strain Y190; growth on triple dropout (-Leu-Trp-His) with 50 mM 3-AT against double dropout (-Leu-Trp); quantitative ONPG assay.

Results are given in words; binding and its absence hold for the method and conditions named. Some results given as binding are weak or reduced against the parent protein; the word gives no strength.

B1: Dvl1 (yeast two-hybrid prey) (protein, UniProt O14640 1-695)
chain: MAETKIIYHMDEEETPYLVKLPVAPERVTLADFKNVLSNRPVHAYKFFFKSMDQDFGVVKEEIFDDNAKLPCFNGRVVSWLVLAEGAHSDAGSQGTDSHTDLPPPLERTGGIGDSRPPSFHPNVASSRDGMDNETGTESMVSHRRERARRRNREEAARTNGHPRGDRRRDVGLPPDSASTALSSELESSSFVDSDEDGSTSRLSSSTEQSTSSRLIRKHKRRRRKQRLRQADRASSFSSITDSTMSLNIVTVTLNMERHHFLGISIVGQSNDRGDGGIYIGSIMKGGAVAADGRIEPGDMLLQVNDVNFENMSNDDAVRVLREIVSQTGPISLTVAKCWDPTPRSYFTVPRADPVRPIDPAAWLSHTAALTGALPRYGTSPCSSAVTRTSSSSLTSSVPGAPQLEEAPLTVKSDMSAVVRVMQLPDSGLEIRDRMWLKITIANAVIGADVVDWLYTHVEGFKERREARKYASSLLKHGFLRHTVNKITFSEQCYYVFGDLCSNLATLNLNSGSSGTSDQDTLAPLPHPAAPWPLGQGYPYQYPGPPPCFPPAYQDPGFSYGSGSTGSQQSEGSKSSGSTRSSRRAPGREKERRAAGAGGSGSESDHTAPSGVGSSWRERPAGQLSRGSSPRSQASATAPGLPPPHPTTKAYTVVGGPPGGPPVRELAAVPPELTGSRQSFQKAMGNPCEFFVDIM
For the molecule B1, the binding result was “binds”.

The record behind these values is PMC2776356 (2009).
